The text below walks through data of paper PMC7841161, “APE1 distinguishes DNA substrates in exonucleolytic cleavage by induced space-filling”.

Sequences of proteins named here, by UniProt entry; tags and fusion partners are left off.
UniProt P28352, whole entry: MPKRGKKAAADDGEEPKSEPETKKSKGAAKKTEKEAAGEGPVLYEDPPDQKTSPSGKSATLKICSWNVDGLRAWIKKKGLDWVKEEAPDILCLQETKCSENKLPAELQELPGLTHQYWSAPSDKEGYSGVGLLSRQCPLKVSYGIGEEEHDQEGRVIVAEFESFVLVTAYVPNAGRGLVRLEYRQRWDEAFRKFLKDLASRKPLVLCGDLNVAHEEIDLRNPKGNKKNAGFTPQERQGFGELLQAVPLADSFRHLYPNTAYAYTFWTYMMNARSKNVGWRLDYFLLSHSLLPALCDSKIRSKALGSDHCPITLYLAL

The comparison behind a weaker result is the experiment's own reference, which may not be listed here. Construct, isoform or probe ends are uncertain for at least one entry. At least one verdict rests on a figure or table, not on a statement of the authors.

The data set concerns the target mAPE1 full-length (mouse) (UniProt P28352). In words: EMSA. To be noted: 50 mM EDTA, EMSA: 50 mM EDTA, 20 mM Tris-HCl pH 7.0, 120 mM NaCl, on ice 10 min + 10 min, FAM-labeled substrates, TBE native gel, recombinant protein, residues 1-317, label: FAM. For orientation: A gel shift assay detects complexes by their altered migration in electrophoresis.

Consider “ACTGGACAAATACTCCGAGG / GAGCACGCTTCACTAATCACAATCGGAGTATTTGTCCAGT [recessed dsDNA 20 nt 5' overhang, 2 nt mismatch]”, for which the binding result (reduced vs other recessed dsDNAs) is recorded as “binds more weakly”. Consider “ACTGGACAAATACTCCGAGG / GAGCACGCTTCACTAATCACACTCGGAGTATTTGTCCAGT [recessed dsDNA 20 nt 5' overhang, 1 nt mismatch]”, for which the binding result is “binds”. Turning to “ACTGGACAAATACTCCGAGG / GTGATTAGTGAAGCGTGCTC / GAGCACGCTTCACTAATCACCCTCGGAGTATTTGTCCAGT [nicked dsDNA 40 mer 5'-phosphate]”, the binding result (weaker than 5'-OH nicked, no low-MW complex, 5'-phosphate at nick (strand 2)) was “binds more weakly”. As for “ACTGGACAAATACTCCGAGG / TGATTAGTGAAGCGTGCTC / GAGCACGCTTCACTAATCACACTCGGAGTATTTGTCCAGT [1-nt gapped dsDNA 40 mer, 1 nt mismatch]”, the binding result (low-MW complex absent, 5'-phosphate at gap margin (strand 2)) is “binds more weakly”. As for ACTGGACAAATACTCCGAGG [ssDNA 20 nt], the binding result (single-stranded DNA) was “binds more weakly”.
